Laboratory results taken from paper PMC8782181.
No constants are given. Whether binding was seen depends on the method and setting. Binding seen in cells or lysates may run through a third protein. A yes stands for co-enrichment or nearness to the bait. Other partners may have been found. For some assays here: Where a sequence is shown, tags or fusion partners need not be part of it.

The chains behind the UniProt entries cited, without tags or fusion partners.
UniProt P53297: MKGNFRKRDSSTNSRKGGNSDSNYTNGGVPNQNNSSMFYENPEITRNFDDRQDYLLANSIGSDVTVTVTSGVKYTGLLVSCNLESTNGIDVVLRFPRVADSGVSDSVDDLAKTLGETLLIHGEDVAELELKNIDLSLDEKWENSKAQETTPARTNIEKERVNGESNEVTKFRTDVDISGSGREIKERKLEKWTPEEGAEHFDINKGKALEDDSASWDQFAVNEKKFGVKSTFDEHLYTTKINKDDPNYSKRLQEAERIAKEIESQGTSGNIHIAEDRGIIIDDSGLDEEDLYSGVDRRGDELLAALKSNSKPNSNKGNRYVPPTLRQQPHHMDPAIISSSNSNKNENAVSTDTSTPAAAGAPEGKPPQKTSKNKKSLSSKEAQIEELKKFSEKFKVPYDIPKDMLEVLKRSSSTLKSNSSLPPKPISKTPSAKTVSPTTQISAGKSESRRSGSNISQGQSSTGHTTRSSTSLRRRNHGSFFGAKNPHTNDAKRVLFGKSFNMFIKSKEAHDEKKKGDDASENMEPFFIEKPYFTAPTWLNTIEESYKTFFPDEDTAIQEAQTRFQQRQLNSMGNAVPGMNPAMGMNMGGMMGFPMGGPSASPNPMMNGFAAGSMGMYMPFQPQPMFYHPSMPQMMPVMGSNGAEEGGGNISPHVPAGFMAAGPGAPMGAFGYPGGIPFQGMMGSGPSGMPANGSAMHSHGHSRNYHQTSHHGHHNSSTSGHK

T1: Dcp1-myc (S. cerevisiae) (UniProt Q12517)
T1 sequence: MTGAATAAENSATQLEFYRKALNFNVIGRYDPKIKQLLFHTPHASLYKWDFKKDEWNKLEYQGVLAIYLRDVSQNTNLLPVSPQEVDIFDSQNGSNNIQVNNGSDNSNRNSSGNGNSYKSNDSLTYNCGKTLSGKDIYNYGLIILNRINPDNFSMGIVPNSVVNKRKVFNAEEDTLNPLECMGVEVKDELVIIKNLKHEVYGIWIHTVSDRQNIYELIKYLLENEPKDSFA

B1: Mkt1 (protein, UniProt P40850 1-830)
chain: MAIKSLESFLFERGLVGSYAIEALNNCTLDIDVNHYVSRLLTNKREQYLDAIGGFPTSLKMYLESDLKIFKDFNITPIFVFNGGLTYNQLEASGHFTAASASASISSTTTSSSGTNATTRSNTESVLLQRSRGWTQWNNLISSNQNSYIDQPIQPQEPFRHNTTIDSKAYQNDLIAYFIEHGYMYQVAPYSSWFQLAYLLNSAYIDAIYGPTDCLMLDCVDRFILGMEFPNKEFRFIDRSRVMKDLGCTHEEFIDIAMAVGNDLQPTTLPPLQIYPVPQLFDIALEMVLNTGTNFYAYQLSTTLQNDSKENIQNYQRGISALRYMPVLKDTGKVELFVQEIVVSEEDSEKNNKDGKKSNLSSPSSASSSASPATTVTKNASEKLTYEKSSTKEVRKPRDIPNDVHDFIGQMLPHEYYFYRSIGLVTGKLFDAIVTGVYPEEPPLGGGSSTSYKKLVSKSVEIFKNKEINLLTQPINRYYQIKQIKQVKWYAANEPTTLTNRMSPSMFETINHLIVKTETSDEKEFSISEFITTINGSSNMAKDFISEKVIFPNSVPIESKLNSPFNLLSTNFLRLLVLLEFFTFDFKEKLLEPTRWGEVFLKLNELNIDSKYHESVIIFLVFLKCDVLKLDEEVQPPAPSALSQATLRSYPEESLYVLLITRVLTLFQVDQKPSNYHGPIDKKTLIFRDHLSFIKENLNELFEAVLISSLTSGEFNRLSLDNFGWARKIVRYLPFKLDSPNTIMAMMWEFFLQKYLHNGNAKNDALSLVATEFNTYKSTPNLDEQFVESHRFLLEISKVMQELNAAKLIDENVFKLFTKAVEFTTTALSS
B2: Edc3 (protein, UniProt P39998 1-551)
chain: MSQFVGFGVQVELKDGKLIQGKIAKATSKGLTLNDVQFGDGGKSQAFKVRASRLKDLKVLTVASQSGKRKQQRQQQQQNDYNQNRGEHIDWQDDDVSKIKQQEDFDFQRNLGMFNKKDVFAQLKQNDDILPENRLQGHNRKQTQLQQNNYQNDELVIPDAKKDSWNKISSRNEQSTHQSQPQQDAQDDLVLEDDEHEYDVDDIDDPKYLPITQSLNITHLIHSATNSPSINDKTKGTVINDKDQVLAKLGQMIISQSRSNSTSLPAANKQTTIRSKNTKQNIPMATPVQLLEMESITSEFFSINSAGLLENFAVNASFFLKQKLGGRARLRLQNSNPEPLVVILASDSNRSGAKALALGRHLCQTGHIRVITLFTCSQNELQDSMVKKQTDIYKKCGGKIVNSVSSLESAMETLNSPVEIVIDAMQGYDCTLSDLAGTSEVIESRIKSMISWCNKQRGSTKVWSLDIPNGFDAGSGMPDIFFSDRIEATGIICSGWPLIAINNLIANLPSLEDAVLIDIGIPQGAYSQRTSLRKFQNCDLFVTDGSLLLDL
B3: Pbp2 (protein, UniProt P38151 1-413)
chain: MSTETTKPSITTTPTTVLVSPNTLKRKKGEDTSEEQLEAEIKRVALKDADSHSDNDHDSPDNVPSDVHLRMLCLVKHASLIVGHKGATISRIKSETSARINISNNIRGVPERIVYVRGTCDDVAKAYGMIVRALLEEHGNEDNGEDIEISINLLIPHHLMGCIIGKRGSRLREIEDLSAAKLFASPNQLLLSNDRILTINGVPDAIHIATFYISQTLLNFQMESPQKNVKRSIYYQPTQFNSVLIDHSQPNTIFHQRNHQYHPSDKLLSYKPNKNLPISSTLLSMATPQYTTASVANATAFQPNFVIPNVTVLDGPVISPAPGNHLLMNFVQQEIFIDEKFVGNVIGKDGKHINSVKESTGCSIIIQDPVEGSSERRLTIRGTFMASQAAIMLISNKIEIDRSNAERKRRSPL
B4: Pbp4 (protein, UniProt Q07362 1-185)
chain: MTTTSTTSVDGRTSSTLKATLSASGPNSNGPTPAVLPQKPKLTGWAQAAAKALPRQQQQQQQARKDDSVAVQPANTKTKTIASTAPPANIKGSSTANGSSTNKKFKRANKQPYNREEVRSYMHKLFQSYTAGEKSHSMKTYKQVLSETASGRVSTATDWGTVSSSKNKNKKYGCLSDIAKVLRNQ

Legend:
Pbp1-myc (S. cerevisiae) = Pbp1-myc (S. cerevisiae) (UniProt P53297); assay: affinity purification with mass spectrometry; cells unstressed or glucose-depleted (10 min for Dcp1-myc, 60 min for Pbp1-myc), cross-linked with 0.8% formaldehyde; 20,000 g pellet of the lysate in Blob100 buffer (20 mM Tris-HCl pH 8, 100 mM NaCl, 1 mM MgCl2, 0.5% NP40) on anti-c-Myc magnetic beads, eluted with Myc peptide; label-free LC-MS/MS; hits are the proteins that cluster (Mfuzz) with the tagged bait across IP, pellet, supernatant, total and unbound fractions
Dcp1-myc (S. cerevisiae) = molecular target: T1, Dcp1-myc (S. cerevisiae); assay: as above

Binder | binding (Pbp1-myc (S. cerevisiae)) | binding (Dcp1-myc (S. cerevisiae))
B1 | binds | binds
B2 | binds | binds
B3 | binds | binds
B4 | binds | binds
